In paper PMC5342796 one finds binding data, which are given here for two substances.

The chains behind the UniProt entries cited, without tags or fusion partners.
UniProt Q9H6I2: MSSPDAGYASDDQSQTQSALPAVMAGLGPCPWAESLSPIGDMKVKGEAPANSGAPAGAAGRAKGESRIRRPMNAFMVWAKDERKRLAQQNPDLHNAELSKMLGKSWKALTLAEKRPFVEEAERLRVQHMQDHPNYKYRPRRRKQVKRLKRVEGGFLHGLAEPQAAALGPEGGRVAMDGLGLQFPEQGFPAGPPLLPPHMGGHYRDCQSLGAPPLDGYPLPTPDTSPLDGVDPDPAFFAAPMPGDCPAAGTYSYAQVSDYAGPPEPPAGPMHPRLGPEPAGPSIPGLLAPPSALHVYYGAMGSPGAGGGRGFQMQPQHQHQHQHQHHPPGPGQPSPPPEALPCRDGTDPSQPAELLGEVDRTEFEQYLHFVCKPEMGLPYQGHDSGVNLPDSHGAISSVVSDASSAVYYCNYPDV
UniProt Q96JK9: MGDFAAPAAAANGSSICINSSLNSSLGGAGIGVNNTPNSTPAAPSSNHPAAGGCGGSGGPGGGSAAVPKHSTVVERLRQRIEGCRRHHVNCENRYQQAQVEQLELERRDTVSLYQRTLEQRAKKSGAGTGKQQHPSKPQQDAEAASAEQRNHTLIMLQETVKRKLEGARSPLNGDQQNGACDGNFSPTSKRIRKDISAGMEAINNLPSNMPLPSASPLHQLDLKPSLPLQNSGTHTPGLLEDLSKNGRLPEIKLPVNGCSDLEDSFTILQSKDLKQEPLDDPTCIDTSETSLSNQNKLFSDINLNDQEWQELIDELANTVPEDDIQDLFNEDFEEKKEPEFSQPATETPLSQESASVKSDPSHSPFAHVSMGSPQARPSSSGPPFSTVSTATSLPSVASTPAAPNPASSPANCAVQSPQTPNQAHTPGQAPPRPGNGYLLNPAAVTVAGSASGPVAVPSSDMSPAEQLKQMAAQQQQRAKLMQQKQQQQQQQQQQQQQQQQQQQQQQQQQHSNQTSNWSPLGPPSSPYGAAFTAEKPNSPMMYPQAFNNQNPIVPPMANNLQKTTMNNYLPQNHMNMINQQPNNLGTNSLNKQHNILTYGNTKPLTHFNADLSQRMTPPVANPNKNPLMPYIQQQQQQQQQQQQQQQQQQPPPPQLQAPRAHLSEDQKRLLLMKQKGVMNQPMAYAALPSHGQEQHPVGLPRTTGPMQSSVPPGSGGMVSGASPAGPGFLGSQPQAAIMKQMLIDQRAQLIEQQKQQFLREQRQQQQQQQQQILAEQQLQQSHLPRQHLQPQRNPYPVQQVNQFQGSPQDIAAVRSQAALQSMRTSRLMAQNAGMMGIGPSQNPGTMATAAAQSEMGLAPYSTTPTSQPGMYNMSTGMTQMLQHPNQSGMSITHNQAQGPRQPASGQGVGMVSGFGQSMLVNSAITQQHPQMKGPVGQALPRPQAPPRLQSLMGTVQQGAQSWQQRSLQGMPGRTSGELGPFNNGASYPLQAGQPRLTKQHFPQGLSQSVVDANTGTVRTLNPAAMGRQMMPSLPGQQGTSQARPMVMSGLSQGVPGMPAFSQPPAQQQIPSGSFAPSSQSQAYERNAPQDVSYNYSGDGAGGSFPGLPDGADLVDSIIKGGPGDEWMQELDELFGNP

One experiment addresses SOX17 in HEC-1B cells (UniProt Q9H6I2). Kind of experiment: co-IP; HEC-1B cells (transfected with SOX17 cDNA by the legend; called endogenous in the text); whole cell extract; Co-IP and western blot.
Experiment [1] concerns the target SOX17 (SRY-box containing gene 17) (UniProt Q9H6I2). Description: co-IP; HEK-293 cells transfected with SOX17 and MAML3 cDNA; whole cell lysate; SOX17 antibody for IP, western blot with MAML3 antibodies; Protein A+G agarose beads. In general terms: In western blotting, separated proteins are transferred to a membrane and probed.

Results are given in words; binding and its absence hold for the method and conditions named. In cells and extracts the contact can be indirect. Some entries that bind do so weakly or less than the wild type.

For the substance “MAML3 in HEC-1B cells (from UniProt Q96JK9 1-1138)”, the binding result in the experiment with SOX17 in HEC-1B cells is on record as “binds”. For MAML3 (from UniProt Q96JK9 1-1138), the binding result in experiment [1] was “binds”.
